The list shows only some results of the screen, not a fair sample: it is rich in T/C values a quarter to a half above the control, in often repeated tests (any T/C) and in doses without a T/C. Other doses and runs of a compound stand elsewhere. T/C gives the treated animals as a percentage of the vehicle group. Some doses have a count of surviving animals in place of a T/C: the source files T/C as zero there, which appears to mark a toxic dose or a test without result, not a measured value. Some doses without a T/C left all or most animals alive at the check, yet need not have been tolerated: survival well below the control is almost never listed, so the zero probably covers shortened survival too. Counts of survivors are from the toxicity check (mostly the fifth day) where no day follows; animals may have died later. Schedules are NCI's codes, taken here to give the interval after Q, in days (D) or hours (H), and the number of doses after X.

In the experiment the test system is L1210 leukemia ip in BDF1 mice, survival T/C. In words: NCI In Vivo Anticancer Drug Screen. Data for tumor model L1210 Leukemia (intraperitoneal) in B6D2F1 (BDF1) mice. The settings on record: T/C endpoint: mean survival time, higher T/C = longer survival.
Setting [1] is: dose: 100.0 mg/kg/injection, schedule: Q01DX009 (ip), vehicle: saline with Tween-80.
Setting [2] is: dose: 400.0 mg/kg/injection, schedule: Q01DX009 (ip), vehicle: saline with Tween-80.
[3] abbreviates: dose: 400.0 mg/kg/injection, schedule: Q01DX001 (ip), vehicle: saline.
[4] abbreviates: dose: 80.0 mg/kg/injection, schedule: Q01DX001 (ip), vehicle: carboxymethylcellulose (CMC).
[5] abbreviates: dose: 100.0 mg/kg/injection, schedule: Q01DX001 (ip), vehicle: carboxymethylcellulose (CMC).
Setting [6] is: dose: 200.0 mg/kg/injection, schedule: Q01DX001 (ip), vehicle: carboxymethylcellulose (CMC).
The mark [7] stands for this setting: dose: 400.0 mg/kg/injection, schedule: Q01DX001 (ip), vehicle: carboxymethylcellulose (CMC).
[8] abbreviates: dose: 200.0 mg/kg/injection, schedule: Q01DX009 (ip), vehicle: saline.
Where [9] appears, read: dose: 400.0 mg/kg/injection, schedule: Q04DX003 (ip), vehicle: saline with Tween-80.
The mark [10] stands for this setting: dose: 200.0 mg/kg/injection, schedule: Q01DX001 (ip), vehicle: saline.
Setting [11] is: dose: 400.0 mg/kg/injection, schedule: Q01DX009 (ip), vehicle: Klucel (hydroxypropylcellulose) (HPC).
[12] abbreviates: dose: 100.0 mg/kg/injection, schedule: Q01DX009 (ip), vehicle: saline.
The mark [13] stands for this setting: dose: 400.0 mg/kg/injection, schedule: Q04DX003 (ip), vehicle: saline.
The mark [14] stands for this setting: dose: 200.0 mg/kg/injection, schedule: Q01DX009 (ip), vehicle: Klucel (hydroxypropylcellulose) (HPC).

For `CC(C)(C)[O][Pb]([c]1ccccc1)([c]1ccccc1)[c]1ccccc1`, the survivor count is 6 of 6 (dose: 3.12 mg/kg/injection, schedule: Q01DX009 (ip), vehicle: saline with Tween-80); 1 of 6 (dose: 6.25 mg/kg/injection, schedule: Q01DX009 (ip), vehicle: saline with Tween-80); 0 of 6 under setting [1]; 0 of 6 (dose: 200.0 mg/kg/injection, schedule: Q01DX009 (ip), vehicle: saline with Tween-80); 0 of 6 under setting [2].

As for `Nc1ccc(CCCNc2c(N)nc(N)nc2-c2ccccc2)cc1`, the survivor count under setting [3] is given as 2 of 4.

For the compound `ClCCN(CCCl)c1ccc(CNCCCNCc2ccc(N(CCCl)CCCl)cc2)cc1`, the survivor count (dose: 40.0 mg/kg/injection, schedule: Q01DX001 (ip), vehicle: carboxymethylcellulose (CMC)) is on record as 2 of 4; the survivor count (dose: 50.0 mg/kg/injection, schedule: Q01DX001 (ip), vehicle: carboxymethylcellulose (CMC)) was 0 of 4; the survivor count under setting [4] is on record as 0 of 4; the survivor count under setting [5] was 0 of 4; the survivor count under setting [6] is on record as 0 of 4; the survivor count under setting [7] is given as 0 of 4.

Turning to `C(=N\NC1=NCCN1)/c1ccccc1`, the survivor count is on record as 1 of 6 (dose: 40.0 mg/kg/injection, schedule: Q01DX001 (ip), vehicle: saline); 1 of 6 (dose: 75.0 mg/kg/injection, schedule: Q01DX001 (ip), vehicle: saline); 0 of 6 (dose: 150.0 mg/kg/injection, schedule: Q01DX001 (ip), vehicle: saline); 0 of 6 (dose: 300.0 mg/kg/injection, schedule: Q01DX001 (ip), vehicle: saline).

In the case of `CCOC(=O)c1cnc(C)[nH]c1=O`, the survivor count was 6 of 6 (dose: 50.0 mg/kg/injection, schedule: Q01DX009 (ip), vehicle: saline); 6 of 6 under setting [8]; 1 of 6 under setting [3].

`CCCCCCCCCCCCCCCC(O)S(=O)(=O)O` (stereo not drawn): the survivor count under setting [9] is 6 of 6.

On to `O=C(NC(c1ccccc1)c1ccccc1)c1ccccc1`, for which the survivor count is on record as 4 of 4 under setting [10] and 4 of 4 under setting [3].

Consider `Cc1cccc(N(CCOC(=O)Nc2cccc(Cl)c2)CCOC(=O)Nc2cccc(Cl)c2)c1`, for which the survivor count (dose: 100.0 mg/kg/injection, schedule: Q01DX001 (ip), vehicle: saline) is on record as 4 of 4.

As for `ClC1=CC2CCC1C21CC1` (stereo not drawn), for the setting “dose: 400.0 mg/kg/injection, schedule: Q01DX005 (ip), vehicle: saline with Tween-80”, the survivor count was 3 of 3.

For the compound `CC1(C)CCC(=NNC(N)=S)CC1`, the survivor count is listed as 0 of 4 under setting [4], 0 of 4 under setting [5], 0 of 4 under setting [6] and 0 of 4 under setting [7].

With `COc1ccc(CNC(=O)NCCCl)cc1OC`, the survivor count under setting [11] is given as 0 of 6.

For `Cc1cc(C)c(CN)cc1CN`, the survivor count is given as 2 of 6 (dose: 200.0 mg/kg/injection, schedule: Q04DX003 (ip), vehicle: saline with Tween-80) and 1 of 6 under setting [9].

For `CCCCN(CCO)C(C#CC(C)(C)O)C(C)C` (stereo not drawn), the survivor count under setting [9] is given as 0 of 6.

Consider `O=C1CSC(=S)N1/N=C/c1c[nH]c2ccc(Br)cc12`, for which, where the note is “dose: 300.0 mg/kg/injection, schedule: Q01DX001 (ip), vehicle: carboxymethylcellulose (CMC)”, the survivor count is listed as 2 of 6.

For `C=CCC(N)Cc1ccccc1` (stereo not drawn), the survivor count reads like this: under setting [12], 1 of 6; (dose: 200.0 mg/kg/injection, schedule: Q04DX003 (ip), vehicle: saline) 1 of 4; under setting [13], 0 of 4.

On to `CC1(C)/C(=C\C(=O)O)C2C=CC1C2` (stereo not drawn), for which, under “dose: 400.0 mg/kg/injection, schedule: Q01DX009 (ip), vehicle: acetone”, the survivor count is given as 2 of 6.

`CCCCCCCCCCCCCCCCNC(=S)NC1CCCCC1`: under setting [2], the survivor count was 3 of 6.

Regarding `C=C(Cl)CSC(=N)N`, the survivor count is 4 of 6 (dose: 40.0 mg/kg/injection, schedule: Q01DX009 (ip), vehicle: saline); 6 of 6 (dose: 50.0 mg/kg/injection, schedule: Q01DX009 (ip), vehicle: Klucel (hydroxypropylcellulose) (HPC)); 0 of 6 under setting [12]; 0 of 6 under setting [8]; 0 of 6 (dose: 400.0 mg/kg/injection, schedule: Q01DX009 (ip), vehicle: saline).

For `CC/C(=N\N=C(/CC)c1ccccc1)c1ccccc1`, the survivor count (dose: 100.0 mg/kg/injection, schedule: Q01DX009 (ip), vehicle: Klucel (hydroxypropylcellulose) (HPC)) is on record as 6 of 6 and the survivor count under setting [14] is 6 of 6.

With `CCCOC(=O)c1ccc([N+](=O)[O-])o1`, the survivor count (dose: 400.0 mg/kg/injection, schedule: Q01DX001 (ip), vehicle: Klucel (hydroxypropylcellulose) (HPC)) is on record as 3 of 6.

In the case of `CC(C)NNC(=O)C(C)N` (stereo not drawn), under setting [13], the survivor count is 4 of 4.

Regarding `Cc1ccc2c(ccc3nnc(C)n32)c1`, the survivor count by setting is: under setting [10], 1 of 4; under setting [3], 1 of 4.

`OC1COC(n2cnc3c(=S)nc[nH]c32)C(O)C1O` (stereo not drawn): the survivor count under setting [3] is on record as 1 of 4.

As for `CCC(C)(CC)OC(N)=O`, the survivor count under setting [13] is on record as 2 of 4.

For `c1ccc(-n2cc(-c3nc(N4CC4)nc(N4CC4)n3)c3ccccc32)cc1`, the survivor count is given as 4 of 6 under setting [14] and 6 of 6 (dose: 400.0 mg/kg/injection, schedule: Q04DX003 (ip), vehicle: Klucel (hydroxypropylcellulose) (HPC)).

Take `Cc1ccc(Cl)cc1NC(=O)C(Br)C(Br)C(=O)O` (stereo not drawn): the survivor count under setting [11] is 0 of 6.

In the case of `Cc1ccc(S(=O)(=O)/C=C(\I)c2ccc([N+](=O)[O-])cc2)cc1`, the survivor count under setting [3] is given as 0 of 6.

For `O=C(OCCCl)OCCCl`, under setting [1], the survivor count is listed as 5 of 6.

For the compound `COC1(OC)C2CCC1(Cl)C(Cl)=C2Cl` (stereo not drawn), the survivor count under setting [9] is reported as 5 of 6.

With `N#CC1(Nc2ccc(S(N)(=O)=O)cc2)CCCC1`, under setting [7], the survivor count is 4 of 4.
